According to PMC4980427, “Ctf4 Links DNA Replication with Sister Chromatid Cohesion Establishment by Recruiting the Chl1 Helicase to the Replisome” (Molecular Cell, 2016):
These are yes or no findings as the source states them, for the method shown. In cells and extracts the contact can be indirect. Some entries that bind do so weakly or less than the wild type. For part of these data: Where a sequence is shown, tags or fusion partners need not be part of it.

Assays:
[1] = molecular target: T1, Ctf4 (S. cerevisiae (endogenous in budding yeast cells)), Q01454; experiment: co-IP; extracts at intervals from a culture progressing synchronously through the cell cycle; Ctf4 immunoprecipitated; Psf2, Pol1 and Chl1 detected by immunoblotting; conditions: remark: other sources report otherwise
T1 chain: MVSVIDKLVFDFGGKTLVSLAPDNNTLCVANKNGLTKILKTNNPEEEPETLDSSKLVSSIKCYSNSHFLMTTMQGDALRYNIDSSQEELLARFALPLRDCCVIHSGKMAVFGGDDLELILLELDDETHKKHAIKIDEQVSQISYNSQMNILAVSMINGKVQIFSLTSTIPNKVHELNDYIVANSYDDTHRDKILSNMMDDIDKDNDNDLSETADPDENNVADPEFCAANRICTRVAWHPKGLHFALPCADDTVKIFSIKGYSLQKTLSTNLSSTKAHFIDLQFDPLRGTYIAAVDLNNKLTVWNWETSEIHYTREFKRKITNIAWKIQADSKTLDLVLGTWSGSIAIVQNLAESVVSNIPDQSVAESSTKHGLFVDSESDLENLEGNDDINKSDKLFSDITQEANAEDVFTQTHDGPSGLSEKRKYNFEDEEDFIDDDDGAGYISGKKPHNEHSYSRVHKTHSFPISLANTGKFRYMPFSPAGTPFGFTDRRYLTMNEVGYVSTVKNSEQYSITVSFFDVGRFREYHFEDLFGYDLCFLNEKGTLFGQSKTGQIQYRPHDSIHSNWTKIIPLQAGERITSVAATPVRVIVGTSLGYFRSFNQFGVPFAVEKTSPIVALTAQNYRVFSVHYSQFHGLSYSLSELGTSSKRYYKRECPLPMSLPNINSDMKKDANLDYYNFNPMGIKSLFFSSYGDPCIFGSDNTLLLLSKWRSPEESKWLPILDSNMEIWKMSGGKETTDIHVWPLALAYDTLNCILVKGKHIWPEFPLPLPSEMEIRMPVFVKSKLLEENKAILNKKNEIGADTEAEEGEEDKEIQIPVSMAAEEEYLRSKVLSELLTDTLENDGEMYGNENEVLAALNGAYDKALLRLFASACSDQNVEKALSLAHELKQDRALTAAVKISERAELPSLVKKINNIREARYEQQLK

[2] = molecular target: T2, Ctf4 (S. cerevisiae (endogenous in budding yeast cells)) (UniProt Q01454); experiment: co-IP; as a1, time points before and after S phase
T2 sequence: T1 chain

[3] = molecular target: T2, Ctf4 (S. cerevisiae (endogenous in budding yeast cells)); experiment: condition: only cells after most DNA replication was complete; co-IP; as a4, time points after most DNA replication was complete

B1: Chl1, P22516 1-861 (enzyme)
chain: MDKKEYSETFYHPYKPYDIQVQLMETVYRVLSEGKKIAILESPTGTGKTLSLICATMTWLRMNKADIFTRMETNIKTNEDDSENLSDDEPDWVIDTYRKSVLQEKVDLLNDYEKHLNEINTTSCKQLKTMCDLDKEHGRYKSVDPLRKKRKGARHLDVSLEEQDFIPRPYESDSENNDTSKSTRGGRISDKDYKLSELNSQIITLLDKIDGKVSRDPNNGDRFDVTNQNPVKIYYASRTYSQLGQFTSQLRLPSFPSSFRDKVPDEKVKYLPLASKKQLCINPKVMKWKTLEAINDACADLRHSKEGCIFYQNTNEWRHCPDTLALRDMIFSEIQDIEDLVPLGKSLGICPYYASREALPIAEVVTLPYQYLLSESTRSSLQINLENSIVIIDEAHNLIETINSIYSSQISLEDLKNCHKGIVTYFNKFKSRLNPGNRVNLLKLNSLLMTLIQFIVKNFKKIGQEIDPNDMFTGSNIDTLNIHKLLRYIKVSKIAYKIDTYNQALKEEESSKNENPIKETHKKSVSSQPLLFKVSQFLYCLTNLTSEGQFFFEKNYSIKYMLLEPSKPFESILNQAKCVVLAGGTMEPMSEFLSNLLPEVPSEDITTLSCNHVIPKENLQTYITNQPELEFTFEKRMSPSLVNNHLFQFFVDLSKAVPKKGGIVAFFPSYQYLAHVIQCWKQNDRFATLNNVRKIFYEAKDGDDILSGYSDSVAEGRGSLLLAIVGGKLSEGINFQDDLCRAVVMVGLPFPNIFSGELIVKRKHLAAKIMKSGGTEEEASRATKEFMENICMKAVNQSVGRAIRHANDYANIYLLDVRYNRPNFRKKLSRWVQDSINSEHTTHQVISSTRKFFSMRSLNSR
[1]
  binding: binds

B2: Pk epitope-tagged Chl1 (enzyme, UniProt P22516 1-861)
chain: B1 chain
[2]
  binding: no binding (condition: cells before or after S phase)

B3: Chl1 (enzyme, UniProt P22516 1-861)
chain: B1 chain
[3]
  binding: no binding
